In patent US20160115446A1, “Technologies, Methods, and Products of Small Molecule Directed Tissue and Organ Regeneration from Human Pluripotent Stem Cells” (SAN DIEGO REGENERATIVE MEDICINE INSTITUTE, priority 2014, published 2016):
Entries after “also recorded” stand apart in the source; their conditions may differ. At least one structure is not confirmed: it was looked up by name or label, or the drawing left a doubt.

How the values were obtained:
undifferentiated hESCs = assay: Neural induction of undifferentiated hESCs in defined culture by RA (marker immunostaining); format: cell-based, human
[1] = tested on: undifferentiated hESCs maintained on feeders; settings: feeder cells or feeder-cell-conditioned media; cited from earlier work

With `CC1=C(/C=C/C(C)=C/C=C/C(C)=C/C(=O)O)C(C)(C)CCC1` [RA, retinoic acid] the “expression of neuroectoderm-associated markers (HNK1, AP2, TrkC)” value (undifferentiated hESCs; RA 10 μM, defined culture) was “began expressing neuroectoderm-associated markers”, the “expression of pluripotence-associated markers (e.g., Oct-4)” value (undifferentiated hESCs; RA 10 μM, defined culture, all the cells within the colony) was “ceased expressing pluripotence-associated markers” and the “Nurr1 cellular localization upon exposure” value (undifferentiated hESCs; exposure of hESCs to RA) was “translocated to the nucleus”. The “neuronal differentiation of undifferentiated hESCs maintained on feeders / feeder-cell-conditioned media” value [1] was “does not induce neuronal differentiation; also recorded: not sufficient to induce the neuronal differentiation”.
